Publication PMC5342045
No constants are given. Whether binding was seen depends on the method and setting. In cells and extracts the contact can be indirect. Some results given as binding are weak or reduced against the parent protein; the word gives no strength.

Chains of the proteins cited; added tags and fusions are not shown.
UniProt P05556: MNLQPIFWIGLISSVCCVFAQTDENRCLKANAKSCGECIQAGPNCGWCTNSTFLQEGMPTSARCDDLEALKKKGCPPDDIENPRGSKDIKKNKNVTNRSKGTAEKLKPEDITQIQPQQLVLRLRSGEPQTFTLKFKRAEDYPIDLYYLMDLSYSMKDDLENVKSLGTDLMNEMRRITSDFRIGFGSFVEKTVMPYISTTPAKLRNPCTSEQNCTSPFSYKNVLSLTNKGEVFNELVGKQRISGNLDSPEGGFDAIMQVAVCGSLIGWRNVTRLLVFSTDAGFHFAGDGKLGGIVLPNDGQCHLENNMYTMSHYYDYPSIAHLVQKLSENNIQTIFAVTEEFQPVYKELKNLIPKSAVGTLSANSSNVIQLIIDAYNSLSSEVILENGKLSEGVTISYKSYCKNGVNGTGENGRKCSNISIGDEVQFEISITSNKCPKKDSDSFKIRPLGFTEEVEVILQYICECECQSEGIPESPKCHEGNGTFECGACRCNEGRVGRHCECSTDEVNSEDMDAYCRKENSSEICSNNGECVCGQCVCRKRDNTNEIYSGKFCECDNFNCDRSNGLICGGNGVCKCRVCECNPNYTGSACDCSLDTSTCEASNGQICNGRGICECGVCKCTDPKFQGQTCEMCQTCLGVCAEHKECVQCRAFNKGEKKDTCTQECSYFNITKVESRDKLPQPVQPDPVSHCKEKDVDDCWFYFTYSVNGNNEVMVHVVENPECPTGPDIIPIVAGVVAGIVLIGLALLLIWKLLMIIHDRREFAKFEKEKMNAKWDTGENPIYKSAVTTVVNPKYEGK

Legend:
[1] = biological target: beta1 integrin (human (endogenous in LNCaP, PC3-PSMA and patients' prostate tissue)) (UniProt P05556); assay: co-IP; IP of beta1 from the same lysates of LNCaP cells treated with gam or D2B+gam; 500 ug pre-cleared lysate, Protein G Sepharose; immunoblot
[2] = biological target: beta1 integrin (human (endogenous in LNCaP, PC3-PSMA and patients' prostate tissue)) (UniProt P05556); assay: co-IP; IP of beta1 from RIPA lysates of frozen prostate carcinoma tissue (PCa1, PCa2, GS 8; two pieces each); immunoblot
[3] = biological target: beta1 integrin (human (endogenous in LNCaP, PC3-PSMA and patients' prostate tissue)) (UniProt P05556); assay: co-IP; IP of beta1 from RIPA lysates of frozen non neoplastic prostate area (NNA; PSMA not expressed); immunoblot
[4] = biological target: beta1 integrin (human (endogenous in LNCaP, PC3-PSMA and patients' prostate tissue)) (UniProt P05556); assay: co-IP; IP of beta1 from lysates of PC3-PSMA cells treated with gam or D2B+gam, same set-up as for LNCaP

Measured: binding

filamin A (from UniProt P21333-2 1-2639)
binds: all assays above

B1: phospho-p130CAS (protein, UniProt P56945-6 1-916)
chain: MPAKPFLSSVLLSWKVLDFSGPGPQGTGQPCSCGHWAEGQGGPPEPAGGPNVLAKALYDNVAESPDELSFRKGDIMTVLEQDTQGLDGWWLCSLHGRQGIVPGNRLKILVGMYDKKPAGPGPGPPATPAQPQPGLHAPAPPASQYTPMLPNTYQPQPDSVYLVPTPSKAQQGLYQVPGPSPQFQSPPAKQTSTFSKQTPHHPFPSPATDLYQVPPGPGGPAQDIYQVPPSAGMGHDIYQVPPSMDTRSWEGTKPPAKVVVPTRVGQGYVYEAAQPEQDEYDIPRHLLAPGPQDIYDVPPVRGLLPSQYGQEVYDTPPMAVKGPNGRDPLLEVYDVPPSVEKGLPPSNHHAVYDVPPSVSKDVPDGPLLREETYDVPPAFAKAKPFDPARTPLVLAAPPPDSPPAEDVYDVPPPAPDLYDVPPGLRRPGPGTLYDVPRERVLPPEVADGGVVDSGVYAVPPPAEREAPAEGKRLSASSTGSTRSSQSASSLEVAGPGREPLELEVAVEALARLQQGVSATVAHLLDLAGSAGATGSWRSPSEPQEPLVQDLQAAVAAVQSAVHELLEFARSAVGNAAHTSDRALHAKLSRQLQKMEDVHQTLVAHGQALDAGRGGSGATLEDLDRLVACSRAVPEDAKQLASFLHGNASLLFRRTKATAPGPEGGGTLHPNPTDKTSSIQSRPLPSPPKFTSQDSPDGQYENSEGGWMEDYDYVHLQGKEEFEKTQKELLEKGSITRQGKSQLELQQLKQFERLEQEVSRPIDHDLANWTPAQPLAPGRTGGLGPSDRQLLLFYLEQCEANLTTLTNAVDAFFTAVATNQPPKIFVAHSKFVILSAHKLVFIGDTLSRQAKAADVRSQVTHYSNLLCDLLRGIVATTKAAALQYPSPSAAQDMVERVKELGHSTQQFRRVLGQLAAA
modifications: phosphorylated (detected with an antibody to pp130CAS); the site is not given
binds: [1] | [2] | [4]
